Data as given in the supplement of paper PMC10849652.
The list shows a part of the results.

The chains behind the UniProt entries cited, without tags or fusion partners. Where a name states a change or a piece, a line headed by the entry shows the natural chain unless it says otherwise.
UniProt Q96Q42: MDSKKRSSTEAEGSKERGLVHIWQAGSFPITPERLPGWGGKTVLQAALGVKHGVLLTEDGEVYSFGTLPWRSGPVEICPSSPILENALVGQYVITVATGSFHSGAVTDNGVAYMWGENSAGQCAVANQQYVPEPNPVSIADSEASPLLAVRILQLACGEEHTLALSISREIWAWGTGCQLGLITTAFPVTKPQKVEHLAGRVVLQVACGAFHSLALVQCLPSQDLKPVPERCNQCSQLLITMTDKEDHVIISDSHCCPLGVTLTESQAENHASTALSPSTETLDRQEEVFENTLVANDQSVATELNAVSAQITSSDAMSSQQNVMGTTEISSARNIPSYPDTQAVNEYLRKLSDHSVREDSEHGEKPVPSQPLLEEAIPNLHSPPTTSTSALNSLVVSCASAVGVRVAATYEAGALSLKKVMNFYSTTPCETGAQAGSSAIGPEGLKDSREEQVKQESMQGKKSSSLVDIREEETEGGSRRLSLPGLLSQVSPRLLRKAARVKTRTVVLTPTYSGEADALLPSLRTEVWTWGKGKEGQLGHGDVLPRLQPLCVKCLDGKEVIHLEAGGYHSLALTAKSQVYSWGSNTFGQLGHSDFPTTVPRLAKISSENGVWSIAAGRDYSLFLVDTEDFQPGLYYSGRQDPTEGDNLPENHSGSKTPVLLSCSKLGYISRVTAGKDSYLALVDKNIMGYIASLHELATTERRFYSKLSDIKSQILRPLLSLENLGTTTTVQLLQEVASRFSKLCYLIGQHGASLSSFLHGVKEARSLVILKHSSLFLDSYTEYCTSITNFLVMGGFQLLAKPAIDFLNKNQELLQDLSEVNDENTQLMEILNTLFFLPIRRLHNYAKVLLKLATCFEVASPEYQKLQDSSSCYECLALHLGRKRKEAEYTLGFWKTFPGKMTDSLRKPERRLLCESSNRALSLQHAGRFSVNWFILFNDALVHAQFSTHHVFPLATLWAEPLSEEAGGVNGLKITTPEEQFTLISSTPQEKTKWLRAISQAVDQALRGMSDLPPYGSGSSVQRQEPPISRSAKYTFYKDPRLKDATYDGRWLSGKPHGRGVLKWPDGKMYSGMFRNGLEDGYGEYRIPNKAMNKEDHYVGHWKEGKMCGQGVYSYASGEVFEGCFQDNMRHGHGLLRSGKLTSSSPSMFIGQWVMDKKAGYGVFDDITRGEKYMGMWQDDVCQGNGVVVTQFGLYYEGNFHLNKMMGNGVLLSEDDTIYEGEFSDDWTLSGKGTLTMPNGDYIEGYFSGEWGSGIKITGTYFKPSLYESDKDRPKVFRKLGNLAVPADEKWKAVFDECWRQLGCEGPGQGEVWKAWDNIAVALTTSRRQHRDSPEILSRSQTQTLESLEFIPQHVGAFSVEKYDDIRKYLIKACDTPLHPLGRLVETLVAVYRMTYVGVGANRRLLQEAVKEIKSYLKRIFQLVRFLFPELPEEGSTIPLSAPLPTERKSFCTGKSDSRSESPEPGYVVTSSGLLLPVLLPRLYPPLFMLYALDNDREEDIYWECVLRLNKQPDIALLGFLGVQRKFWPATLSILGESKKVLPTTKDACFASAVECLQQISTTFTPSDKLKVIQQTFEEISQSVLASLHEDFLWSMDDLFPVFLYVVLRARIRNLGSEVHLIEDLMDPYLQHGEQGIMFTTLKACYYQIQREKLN
UniProt Q6ZW76: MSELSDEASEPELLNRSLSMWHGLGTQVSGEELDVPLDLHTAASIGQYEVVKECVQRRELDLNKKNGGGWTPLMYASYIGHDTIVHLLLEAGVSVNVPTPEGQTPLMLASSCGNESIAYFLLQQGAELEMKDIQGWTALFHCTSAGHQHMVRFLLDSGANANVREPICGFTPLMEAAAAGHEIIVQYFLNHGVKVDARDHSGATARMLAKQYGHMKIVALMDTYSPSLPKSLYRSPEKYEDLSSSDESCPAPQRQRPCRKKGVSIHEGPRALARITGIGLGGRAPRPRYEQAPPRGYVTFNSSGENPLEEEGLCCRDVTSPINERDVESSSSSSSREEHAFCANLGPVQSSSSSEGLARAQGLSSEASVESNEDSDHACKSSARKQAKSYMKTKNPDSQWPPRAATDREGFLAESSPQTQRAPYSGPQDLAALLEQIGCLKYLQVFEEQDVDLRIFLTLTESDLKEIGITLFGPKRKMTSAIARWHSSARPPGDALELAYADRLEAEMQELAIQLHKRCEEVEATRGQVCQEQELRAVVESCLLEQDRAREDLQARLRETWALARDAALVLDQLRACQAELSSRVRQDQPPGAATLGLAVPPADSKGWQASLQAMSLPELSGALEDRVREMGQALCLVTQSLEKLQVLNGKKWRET
UniProt Q9UM13, whole entry, looked up: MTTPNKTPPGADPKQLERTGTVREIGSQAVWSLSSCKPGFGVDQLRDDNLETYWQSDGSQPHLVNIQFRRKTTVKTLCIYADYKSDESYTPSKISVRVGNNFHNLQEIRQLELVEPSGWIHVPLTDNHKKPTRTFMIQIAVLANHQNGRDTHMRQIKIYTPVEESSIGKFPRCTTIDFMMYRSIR
UniProt P58335, whole entry, looked up: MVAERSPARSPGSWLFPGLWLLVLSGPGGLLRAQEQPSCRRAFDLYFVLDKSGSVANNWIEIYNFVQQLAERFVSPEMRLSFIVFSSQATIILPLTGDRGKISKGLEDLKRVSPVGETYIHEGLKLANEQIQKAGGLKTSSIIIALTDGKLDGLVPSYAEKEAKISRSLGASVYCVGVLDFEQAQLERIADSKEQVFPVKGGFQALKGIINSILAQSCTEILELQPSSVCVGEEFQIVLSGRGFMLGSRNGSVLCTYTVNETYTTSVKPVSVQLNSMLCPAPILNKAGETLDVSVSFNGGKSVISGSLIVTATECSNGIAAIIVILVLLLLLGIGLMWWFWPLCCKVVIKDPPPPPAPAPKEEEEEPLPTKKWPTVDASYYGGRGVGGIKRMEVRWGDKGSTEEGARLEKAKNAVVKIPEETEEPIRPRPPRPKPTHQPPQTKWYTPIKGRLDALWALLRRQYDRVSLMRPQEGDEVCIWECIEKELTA
UniProt P00352: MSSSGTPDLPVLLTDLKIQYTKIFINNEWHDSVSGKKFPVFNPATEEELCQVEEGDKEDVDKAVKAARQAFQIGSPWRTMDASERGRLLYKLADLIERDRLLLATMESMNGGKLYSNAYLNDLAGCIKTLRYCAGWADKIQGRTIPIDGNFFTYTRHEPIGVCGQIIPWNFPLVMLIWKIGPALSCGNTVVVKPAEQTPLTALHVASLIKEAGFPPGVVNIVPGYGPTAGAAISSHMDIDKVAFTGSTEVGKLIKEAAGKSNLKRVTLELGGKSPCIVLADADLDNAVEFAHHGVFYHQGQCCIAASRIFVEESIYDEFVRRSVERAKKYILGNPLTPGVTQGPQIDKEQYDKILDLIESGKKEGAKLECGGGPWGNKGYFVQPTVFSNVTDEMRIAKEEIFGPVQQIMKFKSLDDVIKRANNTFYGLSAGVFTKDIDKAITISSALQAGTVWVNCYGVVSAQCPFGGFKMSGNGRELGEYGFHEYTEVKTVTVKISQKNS
UniProt Q6NS38: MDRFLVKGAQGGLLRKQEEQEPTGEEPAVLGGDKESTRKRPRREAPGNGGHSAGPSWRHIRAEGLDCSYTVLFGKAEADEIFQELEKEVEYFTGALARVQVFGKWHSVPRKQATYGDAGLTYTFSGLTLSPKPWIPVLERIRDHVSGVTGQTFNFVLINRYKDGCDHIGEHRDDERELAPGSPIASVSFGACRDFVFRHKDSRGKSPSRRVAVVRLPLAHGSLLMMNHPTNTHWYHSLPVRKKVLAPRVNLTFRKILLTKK
UniProt Q8N6S4: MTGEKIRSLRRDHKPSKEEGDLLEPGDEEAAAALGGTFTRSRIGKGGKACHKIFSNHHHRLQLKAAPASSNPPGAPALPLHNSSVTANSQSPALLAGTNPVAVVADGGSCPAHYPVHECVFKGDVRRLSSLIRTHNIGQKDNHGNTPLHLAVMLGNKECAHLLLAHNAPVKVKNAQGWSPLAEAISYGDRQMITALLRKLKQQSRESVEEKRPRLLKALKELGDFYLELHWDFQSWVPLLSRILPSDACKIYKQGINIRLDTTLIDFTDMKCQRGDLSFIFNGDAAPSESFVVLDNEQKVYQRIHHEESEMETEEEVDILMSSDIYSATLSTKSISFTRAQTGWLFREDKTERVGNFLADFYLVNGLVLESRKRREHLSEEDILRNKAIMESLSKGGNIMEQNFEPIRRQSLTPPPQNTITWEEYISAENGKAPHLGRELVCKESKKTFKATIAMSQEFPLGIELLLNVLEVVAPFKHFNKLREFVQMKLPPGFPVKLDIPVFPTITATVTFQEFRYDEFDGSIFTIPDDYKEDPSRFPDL
UniProt Q6UB98: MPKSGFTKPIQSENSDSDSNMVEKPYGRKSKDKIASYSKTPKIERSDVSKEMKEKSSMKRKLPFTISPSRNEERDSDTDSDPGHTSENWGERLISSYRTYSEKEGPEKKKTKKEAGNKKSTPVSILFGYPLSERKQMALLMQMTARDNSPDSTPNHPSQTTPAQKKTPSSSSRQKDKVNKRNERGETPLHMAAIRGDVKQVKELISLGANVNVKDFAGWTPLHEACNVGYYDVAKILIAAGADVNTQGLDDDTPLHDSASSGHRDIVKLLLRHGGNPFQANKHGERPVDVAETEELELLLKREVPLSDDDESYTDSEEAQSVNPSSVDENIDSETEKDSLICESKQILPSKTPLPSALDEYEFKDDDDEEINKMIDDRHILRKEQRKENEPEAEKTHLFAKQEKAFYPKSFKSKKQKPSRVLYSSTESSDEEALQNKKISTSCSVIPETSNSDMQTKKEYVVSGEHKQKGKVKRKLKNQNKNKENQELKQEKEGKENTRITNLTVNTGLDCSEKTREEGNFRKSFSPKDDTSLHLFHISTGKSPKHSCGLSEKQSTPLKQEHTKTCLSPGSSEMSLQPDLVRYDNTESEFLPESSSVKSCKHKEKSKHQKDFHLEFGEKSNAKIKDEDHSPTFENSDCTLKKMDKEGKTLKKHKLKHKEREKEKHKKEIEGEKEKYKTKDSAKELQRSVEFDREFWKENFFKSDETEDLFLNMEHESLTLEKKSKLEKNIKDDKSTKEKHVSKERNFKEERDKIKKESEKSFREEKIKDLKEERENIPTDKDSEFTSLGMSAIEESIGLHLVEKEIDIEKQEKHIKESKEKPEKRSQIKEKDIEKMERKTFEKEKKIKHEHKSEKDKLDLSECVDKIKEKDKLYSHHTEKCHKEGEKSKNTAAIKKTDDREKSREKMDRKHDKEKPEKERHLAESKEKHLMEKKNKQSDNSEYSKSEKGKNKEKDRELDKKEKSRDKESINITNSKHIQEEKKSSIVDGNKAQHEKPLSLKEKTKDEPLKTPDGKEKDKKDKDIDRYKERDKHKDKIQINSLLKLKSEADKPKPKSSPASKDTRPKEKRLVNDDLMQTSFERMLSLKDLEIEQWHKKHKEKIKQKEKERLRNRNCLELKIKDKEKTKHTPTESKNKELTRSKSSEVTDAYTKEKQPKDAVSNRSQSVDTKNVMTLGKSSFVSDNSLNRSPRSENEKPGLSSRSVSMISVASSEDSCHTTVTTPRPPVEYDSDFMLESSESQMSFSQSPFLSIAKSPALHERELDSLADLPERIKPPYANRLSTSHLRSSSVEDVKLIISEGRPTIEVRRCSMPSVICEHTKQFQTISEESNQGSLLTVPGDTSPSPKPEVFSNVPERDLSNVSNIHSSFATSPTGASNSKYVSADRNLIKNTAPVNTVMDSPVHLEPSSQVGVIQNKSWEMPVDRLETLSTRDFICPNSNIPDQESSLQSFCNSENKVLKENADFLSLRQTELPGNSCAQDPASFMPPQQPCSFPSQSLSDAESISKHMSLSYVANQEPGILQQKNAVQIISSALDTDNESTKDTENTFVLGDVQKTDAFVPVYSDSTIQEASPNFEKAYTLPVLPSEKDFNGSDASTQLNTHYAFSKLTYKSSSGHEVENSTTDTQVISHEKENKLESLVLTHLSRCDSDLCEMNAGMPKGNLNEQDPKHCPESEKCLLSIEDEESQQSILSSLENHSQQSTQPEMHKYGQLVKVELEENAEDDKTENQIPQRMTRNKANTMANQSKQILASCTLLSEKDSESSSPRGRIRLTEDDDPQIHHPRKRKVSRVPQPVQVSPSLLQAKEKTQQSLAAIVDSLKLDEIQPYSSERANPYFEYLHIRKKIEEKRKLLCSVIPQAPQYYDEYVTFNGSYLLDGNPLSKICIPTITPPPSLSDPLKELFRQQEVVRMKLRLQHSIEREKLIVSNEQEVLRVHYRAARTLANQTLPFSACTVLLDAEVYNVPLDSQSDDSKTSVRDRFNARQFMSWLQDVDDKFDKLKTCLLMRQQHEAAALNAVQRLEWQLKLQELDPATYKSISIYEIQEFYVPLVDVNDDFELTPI

Tests used:
Assay in all cases: log2 fold change, soluble protein after heating vs DMSO (PISA); higher = thermal stabilisation; K562 lysate, 10 uM; active = over 0.2 and 3.5 SD of the protein, either way, in both replicates (recomputed)
lapatinib = compound: CS(=O)(=O)CCNCc1ccc(-c2ccc3ncnc(Nc4ccc(OCc5cccc(F)c5)c(Cl)c4)c3c2)o1 [lapatinib]
Summary of the method: (§1)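 Values give the log-two fold change in thermal stability against solvent controls, from duplicates. Crude K562 extract at 1 mg/mL protein, made by dounce homogenisation in PBS pH 7.4 with 1 mM MgCl2, was treated with 10 μM compound for 30 min. After 3 min heating across 48°C-58°C, aliquots were pooled, adjusted to 0.5% NP-40 at 4°C and centrifuged at 21,000xg for 90 min. The supernatant was measured by TMTpro 16plex LC-MS/MS with channel sums equalised.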

pictilisib = compound: CS(=O)(=O)N1CCN(Cc2cc3nc(-c4cccc5[nH]ncc45)nc(N4CCOCC4)c3s2)CC1 [pictilisib]
Summary of the method: as §1

crizotinib = compound: C[C@@H](Oc1cc(-c2cnn(C3CCNCC3)c2)cnc1N)c1c(Cl)ccc(F)c1Cl [crizotinib]
Summary of the method: as §1

[1] = compound: C[C@H](C1=CC=C(C=C1)C(=O)NC2=C3C=CNC3=NC=C2)N
Summary of the method: as §1

duvelisib = compound: C[C@H](Nc1ncnc2nc[nH]c12)c1cc2cccc(Cl)c2c(=O)n1-c1ccccc1 [duvelisib]
Summary of the method: as §1

gandotinib = compound: Cc1cc(Nc2cc(CN3CCOCC3)c3nc(C)c(Cc4ccc(Cl)cc4F)n3n2)n[nH]1 [gandotinib]
Summary of the method: as §1

tozasertib = compound: Cc1cc(Nc2cc(N3CCN(C)CC3)nc(Sc3ccc(NC(=O)C4CC4)cc3)n2)n[nH]1 [tozasertib]
Summary of the method: as §1

doramapimod = compound: Cc1ccc(-n2nc(C(C)(C)C)cc2NC(=O)Nc2ccc(OCCN3CCOCC3)c3ccccc23)cc1 [doramapimod]
Summary of the method: as §1

bafetinib = compound: Cc1ccc(NC(=O)c2ccc(CN3CC[C@H](N(C)C)C3)c(C(F)(F)F)c2)cc1Nc1nccc(-c2cncnc2)n1 [bafetinib]
Summary of the method: as §1

[2] = compound: Cc1cccc(CC(=O)N2CCc3c2ccc(-c2cn(C)c4ncnc(N)c24)c3F)n1
Summary of the method: as §1

nilotinib = compound: Cc1cn(-c2cc(NC(=O)c3ccc(C)c(Nc4nccc(-c5cccnc5)n4)c3)cc(C(F)(F)F)c2)cn1 [nilotinib]
Summary of the method: as §1

[3] = compound: Cc1nc(Nc2n[nH]c3c2CN(C(=O)N[C@H](CN(C)C)c2ccccc2)C3(C)C)c2sccc2n1
Summary of the method: as §1

dasatinib = compound: Cc1nc(Nc2ncc(C(=O)Nc3c(C)cccc3Cl)s2)cc(N2CCN(CCO)CC2)n1 [dasatinib]
Summary of the method: as §1

[4] = compound: Cc1ncc(-c2ccnc(Nc3ccc(S(C)(=O)=O)cc3)n2)n1C(C)C
Summary of the method: as §1

[5] = compound: Cn1cc(-c2ccc3c(c2)CCN3C(=O)Cc2cccc(C(F)(F)F)c2)c2c(N)ncnc21
Summary of the method: as §1

quisinostat = compound: Cn1cc(CNCC2CCN(c3ncc(C(=O)NO)cn3)CC2)c2ccccc21 [quisinostat]
Summary of the method: as §1

tipifarnib = compound: Cn1cncc1[C@@](N)(c1ccc(Cl)cc1)c1ccc2c(c1)c(-c1cccc(Cl)c1)cc(=O)n2C [tipifarnib]
Summary of the method: as §1

[6] = compound: NC(=O)Nc1cc(-c2cccc(F)c2)sc1C(=O)N[C@H]1CCCNC1
Summary of the method: as §1

[7] = compound: NC(=O)c1cnc(N[C@@H]2CCCC[C@@H]2N)nc1Nc1cccc(-n2nccn2)c1
Summary of the method: as §1

[8] = compound: NC1(c2ccc(-c3nc4ccn5c(=O)[nH]nc5c4cc3-c3ccccc3)cc2)CCC1
Summary of the method: as §1

Measured: log2 fold change

ANAPC5 (UniProt Q9UJX4)
inactive: lapatinib -0.01 | pictilisib -0.017 | crizotinib -0.034 | [1] -0.033 | duvelisib 0.005 | gandotinib -0.025 | tozasertib 0.019 | doramapimod 0.013 | bafetinib -0.043 | [2] 0.036 | nilotinib 0.029 | [3] -0.016 | dasatinib -0.026 | [4] -0.002 | [5] 0.003 | quisinostat -0.002 | tipifarnib -0.019 | [6] 0.054 | [7] 0.006 | [8] -0.013

ALS2 (UniProt Q96Q42)
inactive: lapatinib 0.051 | pictilisib -0.077 | crizotinib -0.052 | [1] 0.014 | duvelisib 0.013 | gandotinib -0.032 | tozasertib -0.093 | doramapimod -0.003 | bafetinib 0.077 | [2] 0.074 | nilotinib 0.099 | [3] 0.038 | dasatinib -0.007 | [4] 0.042 | [5] 0.022 | quisinostat -0.025 | tipifarnib -0.111 | [6] 0.014 | [7] 0.041 | [8] 0.078

ANKS3 (UniProt Q6ZW76)
inactive: lapatinib 0.101 | pictilisib 0.067 | crizotinib -0.099 | [1] -0.32 | duvelisib -0.076 | gandotinib -0.019 | tozasertib -0.048 | doramapimod -0.017 | bafetinib -0.145 | [2] 0.128 | dasatinib -0.074 | [5] 0.23 | quisinostat -0.192 | [6] -0.018 | [7] 0.127

ANAPC10 (UniProt Q9UM13)
inactive: lapatinib -0.008 | pictilisib -0.012 | crizotinib -0.003 | [1] -0.038 | duvelisib 0.025 | gandotinib 0.029 | tozasertib 0 | doramapimod -0.049 | bafetinib -0.047 | [2] 0.026 | nilotinib -0.005 | [3] -0.008 | dasatinib -0.04 | [4] -0.019 | [5] 0.05 | quisinostat 0.016 | tipifarnib -0.014 | [6] 0.061 | [7] -0.003 | [8] 0.066

ANTXR2 isoform 4 (UniProt P58335)
inactive: lapatinib -0.015 | pictilisib -0.002 | crizotinib -0.037 | [1] -0.084 | duvelisib 0.017 | gandotinib 0.085 | tozasertib -0.036 | doramapimod -0.021 | bafetinib -0.031 | [2] 0.084 | nilotinib 0.017 | [3] 0.031 | dasatinib 0.034 | [4] -0.048 | [5] -0.009 | quisinostat -0.089 | tipifarnib -0.052 | [6] -0.016 | [7] 0.021 | [8] -0.043

ALDH1A1 (UniProt P00352)
inactive: lapatinib 0.002 | pictilisib -0.068 | crizotinib 0.004 | [1] 0.05 | duvelisib -0.023 | gandotinib -0.111 | tozasertib -0.006 | doramapimod -0.015 | bafetinib 0.061 | [2] -0.164 | nilotinib 0.036 | [3] -0.019 | [4] -0.012 | [5] -0.04 | quisinostat 0.015 | tipifarnib 0.019 | [6] 0.014 | [7] -0.011 | [8] 0.034
active: dasatinib 0.306

ALKBH2 (UniProt Q6NS38)
inactive: lapatinib -0.04 | pictilisib -0.099 | crizotinib 0.045 | [1] -0.177 | duvelisib 0.098 | gandotinib 0.025 | tozasertib -0.09 | doramapimod -0.102 | bafetinib -0.021 | [2] 0.029 | nilotinib -0.043 | [3] 0.019 | dasatinib 0.035 | [4] -0.115 | [5] -0.015 | quisinostat -0.076 | tipifarnib -0.112 | [6] 0.001 | [7] -0.139 | [8] -0.012

ANKRD13C (UniProt Q8N6S4)
inactive: pictilisib -0.137 | bafetinib -0.031

ANKRD12 (UniProt Q6UB98)
inactive: tozasertib 0.052

ANKHD1 isoform 2 (UniProt Q8IWZ3)
inactive: pictilisib 0.012 | crizotinib 0.02 | [1] 0.091 | duvelisib -0.008 | gandotinib -0.109 | tozasertib 0.082 | doramapimod -0.077 | bafetinib 0.022 | [2] -0.016 | nilotinib -0.015 | [3] 0.038 | dasatinib -0.027 | [4] -0.035 | [5] 0.119 | quisinostat -0.007 | tipifarnib -0.047 | [6] 0.037 | [8] -0.188
